Test results published in patent publication US20210309718A1.
These are yes or no findings as the source states them, for the method shown. Some results given as binding are weak or reduced against the parent protein; the word gives no strength.

The chains behind the UniProt entries cited, without tags or fusion partners. Where a name states a change or a piece, a line headed by the entry shows the natural chain unless it says otherwise.
UniProt P09038: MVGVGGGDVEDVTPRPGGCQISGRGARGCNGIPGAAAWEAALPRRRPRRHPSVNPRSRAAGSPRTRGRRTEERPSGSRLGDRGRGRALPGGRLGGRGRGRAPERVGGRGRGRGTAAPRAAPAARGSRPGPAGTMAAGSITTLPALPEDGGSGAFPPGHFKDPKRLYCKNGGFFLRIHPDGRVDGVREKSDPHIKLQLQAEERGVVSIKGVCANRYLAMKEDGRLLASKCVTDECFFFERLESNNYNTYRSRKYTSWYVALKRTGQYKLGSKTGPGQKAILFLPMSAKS

How the values were obtained:
human FGF2 (human) [1] = target: human FGF2 (human) (UniProt P09038); test: SPR, FGF2 binding activity and Kd compared for HEK 293 and CHO material
human FGF2 (human) [2] = target: human FGF2 (human) (UniProt P09038); test: SPR (BIACORE T200), hFGF2 immobilised on CM5 chip, sFGFR3 polypeptide as analyte, five successive injections; concentrations not given

| binding (human FGF2 (human) [1]) | binding (human FGF2 (human) [2]) | Binder |
| --- | --- | --- |
| binds | binds | sFGFR3_Del4-LK1-LK2 (receptor) ESLGTEQRVVGRAAEVPGPEPGQQEQLVFGSGDAVELSCPPPGGGPMGPTVWVKDGTGLVPSERVLVGPQRLQVLNASHEDSGAYSCRQRLTQRVLCHFSVRVTDAPSSGDDEDGEDEAEDTGVDTGAPYWTRPERMDKKLLAVPAANTVRFRCPAAGNPTPSISWLKNGREFRGEHRIGGIKLRHQQWSLVMESVVPSDRGNYTCVVENKFGSIRQTYTLDVLERSPHRPILQAGLPANQTAVLGSDVEFHCKVYSDAQPHIQWLKHVEVNGSKVGPDGTPYVTVLKVSLESNASMSSNTSGSGSGSGSGSGSGSVVFPYFPRLGRYNLNFHEAQQACLDQDAVIASFDQLYDAWRGGLDWCNAGWLSDGSVQYPITKPREPCGGQNTVPGVRNYGFWDKDKSRYDVFCFTSNFNGRFYYLIHPTKLTYDEAVQACLNDGAQIAKVGQIFAAWKILGYDRCDAGWLADGSVRYPISRPRRRCSPTEAAVRFVGFPDKKHKLYGVYCFRAYN |
|  | binds | sFGFR3_Del4-LK1-LK2-C253S (receptor) soluble receptor polypeptide: ESLGTEQRVVGRAAEVPGPEPGQQEQLVFGSGDAVELSCPPPGGGPMGPTVWVKDGTGLVPSERVLVGPQRLQVLNASHEDSGAYSCRQRLTQRVLCHFSVRVTDAPSSGDDEDGEDEAEDTGVDTGAPYWTRPERMDKKLLAVPAANTVRFRCPAAGNPTPSISWLKNGREFRGEHRIGGIKLRHQQWSLVMESVVPSDRGNYTCVVENKFGSIRQTYTLDVLERSPHRPILQAGLPANQTAVLGSDVEFHSKVYSDAQPHIQWLKHVEVNGSKVGPDGTPYVTVLKVSLESNASMSSNTSGSGSGSGSGSGSGSVVFPYFPRLGRYNLNFHEAQQACLDQDAVIASFDQLYDAWRGGLDWCNAGWLSDGSVQYPITKPREPCGGQNTVPGVRNYGFWDKDKSRYDVFCFTSNFNGRFYYLIHPTKLTYDEAVQACLNDGAQIAKVGQIFAAWKILGYDRCDAGWLADGSVRYPISRPRRRCSPTEAAVRFVGFPDKKHKLYGVYCFRAYN |
|  | binds | sFGFR3_Del4-LK1-LK2-D3 (receptor) soluble receptor polypeptide: ESLGTEQRVVGRAAEVPGPEPGQQEQLVFGSGDAVELSCPPPGGGPMGPTVWVKDGTGLVPSERVLVGPQRLQVLNASHEDSGAYSCRQRLTQRVLCHFSVRVTDAPSSGDDEDGEDEAEDTGVDTGAPYWTRPERMDKKLLAVPAANTVRFRCPAAGNPTPSISWLKNGREFRGEHRIGGIKLRHQQWSLVMESVVPSDRGNYTCVVENKFGSIRQTYTLDVLERSPHRPILQAGLPANQTAVLGSDVEFHCKVYSDAQPHIQWLKHVEVNGSKVGPDGTPYVTVLKTAGANTTDKELEVLSLHNVTFEDAGEYTCLAGNSIGFSHHSAWLVVLPVSLESNASMSSNTSGSGSGSGSGSGSGSVVFPYFPRLGRYNLNFHEAQQACLDQDAVIASFDQLYDAWRGGLDWCNAGWLSDGSVQYPITKPREPCGGQNTVPGVRNYGFWDKDKSRYDVFCFTSNFNGRFYYLIHPTKLTYDEAVQACLNDGAQIAKVGQIFAAWKILGYDRCDAGWLADGSVRYPISRPRRRCSPTEAAVRFVGFPDKKHKLYGVYCFRAYN |
